Assay results published in article PMC7791840, “The R-enantiomer of ketorolac reduces ovarian cancer tumor burden in vivo” (BMC Cancer, 2021).

How the values were obtained:
COX1 = test: Western blot of tumor COX1 protein; format: in vivo; details: 1 mg/kg twice daily
[1] = tested on: ADM, CXCR4, DUSP1, FAM43A, HK2, HMOX1, IGFBP5, KRT19, and VEGFA; test: qRT-PCR validation of RNA-seq in tumors; format: in vivo, human
COX2 = test: Western blot of tumor COX2 protein; format: in vivo; details: 1 mg/kg twice daily

Row | SMILES | COX1 protein level in tumors (COX1) | CXCR4 expression in tumors ([1]; in vivo, vs placebo) | Expression of 9 genes (ADM, CXCR4, DUSP1, FAM43A, HK2, HMOX1, IGFBP5, KRT19, VEGFA) by qRT-PCR ([1]; tumors, vs placebo control) | VEGFA expression in tumors ([1]; vs placebo) | COX2 protein level in tumors (COX2)
1 | O=C(c1ccccc1)c1ccc2n1CC[C@H]2C(=O)O [R-ketorolac] | unaffected | significantly reduced | decreased expression | decreased expression of the angiogenic marker VEGFA | unaffected
2 | O=C(c1ccccc1)c1ccc2n1CC[C@@H]2C(=O)O [S-ketorolac] | decreased | – | – | – | decreased
3 | O=C(c1ccccc1)c1ccc2n1CCC2C(=O)O (stereo not drawn) [R−/S-ketorolac, ketorolac tromethamine salt] | decreased | – | – | – | decreased

Counter-ions that a name gives are not always drawn.
